Experiment [1] concerns the target T1, TpiA of S. pneumoniae in BALF of an infected mouse (S. pneumoniae D39) (UniProt P66943).
T1 sequence: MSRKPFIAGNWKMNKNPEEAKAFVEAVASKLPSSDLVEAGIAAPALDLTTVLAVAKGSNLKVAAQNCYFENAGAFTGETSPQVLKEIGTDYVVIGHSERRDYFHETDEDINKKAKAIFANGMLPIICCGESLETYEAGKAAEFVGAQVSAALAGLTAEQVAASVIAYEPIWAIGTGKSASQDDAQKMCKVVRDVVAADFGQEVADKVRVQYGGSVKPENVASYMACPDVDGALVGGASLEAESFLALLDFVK
In words: far-Western, overlay or dot blot; BALF samples from a pneumococcus-infected mouse blotted, probed with plasminogen, plasminogen-bound bands detected (Fig. S5); only the binder purified.

Experiment [2] deals with T2, recombinant TpiA (triosephosphate isomerase of Streptococcus pneumoniae D39) (S. pneumoniae D39) (UniProt P66943).
T2 sequence: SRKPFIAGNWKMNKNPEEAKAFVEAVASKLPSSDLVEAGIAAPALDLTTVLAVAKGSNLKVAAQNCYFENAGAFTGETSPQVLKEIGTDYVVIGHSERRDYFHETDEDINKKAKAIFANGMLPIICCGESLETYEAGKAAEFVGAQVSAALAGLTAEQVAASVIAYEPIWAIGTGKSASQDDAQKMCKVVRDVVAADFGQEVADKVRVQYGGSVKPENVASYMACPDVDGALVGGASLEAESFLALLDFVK
In words: far-Western, overlay or dot blot; rTpiA (200 ng) and BSA (200 ng) after SDS/PAGE on PVDF membranes; incubated 90 min with 30 µg/mL human plasminogen or laminin in TBST with blocking reagent at room temperature; detected with anti-plasminogen or anti-laminin antibodies; both purified.

Experiment [3] concerns the target plasminogen from human plasma (human). In words: ELISA; host proteins and BSA coated at 1 µg per well; 1 µg per well of rTpiA added, 37 °C, 1 h, PBST; bound rTpiA detected with anti-TpiA peptide antibody; for plasminogen also with EACA added along with rTpiA; both purified.

The values that follow come from PMC9157410.

These are yes or no findings as the source states them, for the method shown. Binding calls can cover weak binding; strength is not graded here.

As to plasminogen from human plasma, the binding entry in experiment [1] and in experiment [2] was “binds” in each case.

B1: recombinant TpiA (triosephosphate isomerase of Streptococcus pneumoniae D39) (enzyme, UniProt P66943 2-252)
chain: SRKPFIAGNWKMNKNPEEAKAFVEAVASKLPSSDLVEAGIAAPALDLTTVLAVAKGSNLKVAAQNCYFENAGAFTGETSPQVLKEIGTDYVVIGHSERRDYFHETDEDINKKAKAIFANGMLPIICCGESLETYEAGKAAEFVGAQVSAALAGLTAEQVAASVIAYEPIWAIGTGKSASQDDAQKMCKVVRDVVAADFGQEVADKVRVQYGGSVKPENVASYMACPDVDGALVGGASLEAESFLALLDFVK
As for B1, in experiment [3], the binding entry is “binds”.
